Data taken from publication PMC5596348.
No constants are given. Whether binding was seen depends on the method and setting.

Chains of the proteins cited; added tags and fusions are not shown. Residues count along the entry.
UniProt P0C0I3, residues 34-571: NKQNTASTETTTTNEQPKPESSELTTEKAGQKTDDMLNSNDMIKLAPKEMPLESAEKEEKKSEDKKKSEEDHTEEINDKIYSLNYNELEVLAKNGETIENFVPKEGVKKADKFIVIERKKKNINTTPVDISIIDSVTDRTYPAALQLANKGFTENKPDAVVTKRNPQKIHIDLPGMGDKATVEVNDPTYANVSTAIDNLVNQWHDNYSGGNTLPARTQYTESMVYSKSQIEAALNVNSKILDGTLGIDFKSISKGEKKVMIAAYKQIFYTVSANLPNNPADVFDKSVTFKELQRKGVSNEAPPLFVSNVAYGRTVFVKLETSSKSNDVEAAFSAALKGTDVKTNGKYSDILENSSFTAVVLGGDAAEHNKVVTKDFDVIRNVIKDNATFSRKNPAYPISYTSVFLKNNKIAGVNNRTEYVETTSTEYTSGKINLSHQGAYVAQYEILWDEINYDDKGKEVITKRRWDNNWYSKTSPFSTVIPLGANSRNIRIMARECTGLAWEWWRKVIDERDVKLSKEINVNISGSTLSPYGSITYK

Columns and labels:
[1] = molecular target: streptolysin O (Streptococcus pyogenes (group A Streptococcus), strain 854) (UniProt P0C0I3); assay: SEC-MALS; […]; PBS, 1 mM DTT, pH 7.4; room temperature; both purified
[2] = molecular target: streptolysin O (Streptococcus pyogenes (group A Streptococcus), strain 854) (UniProt P0C0I3); assay: cross-linking; […], room temperature; […], pH 7.4; […]; both purified

**Q.** For “streptolysin O (from UniProt P0C0I3 34-571)”, which binding [1] is on record?
**A.** no binding (tested: 25 μM)

**Q.** What about the binding [2] of the same substance?
**A.** no binding (tested: 12 μM)
